Test results as given in patent publication US20250368742A1.
No constants are given. Whether binding was seen depends on the method and setting. Some binding calls cover weakened binding; strength is not graded here. Where a sequence is shown, tags or fusion partners need not be part of it.

By UniProt entry, the sequences of proteins in these tests, tags left out. Residues count along the entry.
UniProt P26718, residues 78-216: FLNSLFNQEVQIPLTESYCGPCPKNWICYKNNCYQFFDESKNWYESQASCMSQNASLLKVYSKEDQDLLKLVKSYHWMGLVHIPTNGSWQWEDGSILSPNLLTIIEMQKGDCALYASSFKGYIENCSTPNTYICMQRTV

What was measured:
[1] = target: NKG2D-His (UniProt P26718); assay: ELISA, NKG2D-His coated, titrated MICA/B-ECD, detection with 1D5
[2] = target: NKG2D-His (UniProt P26718); assay: ELISA: NKG2D-His coated, MICA/B-ECD titrated, detection 1D5 + anti-hFc-HRP

Binder | binding [1] | binding [2]
MICB005-ECD-HISAvi (ligand) EPHSLRYNLMVLSQDGSVQSGFLAEGHLDGQPFLRYDRQKRRAKPQGQWAEDVLGAKTWDTETEDLTENGQDLRRTLTHIKDQKGGLHSLQEIRVCEIHEDSSTRGSRHFYYDGELFLSQNLETQESTVPQSSRAQTLAMNVTNFWKEDAMKTKTHYRAMQADCLQKLQRYLKSGVAIRRTVPPMVNVTCSEVSEGNITVTCRASSFYPRNITLTWRQDGVSLSHNTQQWGDVLPDGNGTYQTWVATRIRQGEEQRFTCYMEHSGNHGTHPVPSGKALVLQSQRTDHHHHHHGLNDIFEAQKIEWHE | binds | binds
MICA002-ECD-HISAvi (ligand) EPHSLRYNLTVLSGDGSVQSGFLAEVHLDGQPFLRCDRQKCRAKPQGQWAEDVLGNKTWDRETRDLTGNGKDLRMTLAHIKDQKEGLHSLQEIRVCEIHEDNSTRSSQHFYYDGELFLSQNLETEEWTMPQSSRAQTLAMNVRNFLKEDAMKTKTHYHAMHADCLQELRRYLKSGVVLRRTVPPMVNVTRSEASEGNITVTCRASGFYPWNITLSWRQDGVSLSHDTQQWGDVLPDGNGTYQTWVATRICQGEEQRFTCYMEHSGNHSTHPVPSGKVLVLQSHWQHHHHHHGLNDIFEAQKIEWHE |  | binds
